Results published in publication PMC5791736.
These are yes or no findings as the source states them, for the method shown. In cells and extracts the contact can be indirect. These calls come from enrichment with a bait or labelling near it, and not all partners need be listed. Sequences can lack the tags named with a protein.

Protein sequences, listed by entry. Tags and fused reporters are not part of them.
UniProt Q8TDY2: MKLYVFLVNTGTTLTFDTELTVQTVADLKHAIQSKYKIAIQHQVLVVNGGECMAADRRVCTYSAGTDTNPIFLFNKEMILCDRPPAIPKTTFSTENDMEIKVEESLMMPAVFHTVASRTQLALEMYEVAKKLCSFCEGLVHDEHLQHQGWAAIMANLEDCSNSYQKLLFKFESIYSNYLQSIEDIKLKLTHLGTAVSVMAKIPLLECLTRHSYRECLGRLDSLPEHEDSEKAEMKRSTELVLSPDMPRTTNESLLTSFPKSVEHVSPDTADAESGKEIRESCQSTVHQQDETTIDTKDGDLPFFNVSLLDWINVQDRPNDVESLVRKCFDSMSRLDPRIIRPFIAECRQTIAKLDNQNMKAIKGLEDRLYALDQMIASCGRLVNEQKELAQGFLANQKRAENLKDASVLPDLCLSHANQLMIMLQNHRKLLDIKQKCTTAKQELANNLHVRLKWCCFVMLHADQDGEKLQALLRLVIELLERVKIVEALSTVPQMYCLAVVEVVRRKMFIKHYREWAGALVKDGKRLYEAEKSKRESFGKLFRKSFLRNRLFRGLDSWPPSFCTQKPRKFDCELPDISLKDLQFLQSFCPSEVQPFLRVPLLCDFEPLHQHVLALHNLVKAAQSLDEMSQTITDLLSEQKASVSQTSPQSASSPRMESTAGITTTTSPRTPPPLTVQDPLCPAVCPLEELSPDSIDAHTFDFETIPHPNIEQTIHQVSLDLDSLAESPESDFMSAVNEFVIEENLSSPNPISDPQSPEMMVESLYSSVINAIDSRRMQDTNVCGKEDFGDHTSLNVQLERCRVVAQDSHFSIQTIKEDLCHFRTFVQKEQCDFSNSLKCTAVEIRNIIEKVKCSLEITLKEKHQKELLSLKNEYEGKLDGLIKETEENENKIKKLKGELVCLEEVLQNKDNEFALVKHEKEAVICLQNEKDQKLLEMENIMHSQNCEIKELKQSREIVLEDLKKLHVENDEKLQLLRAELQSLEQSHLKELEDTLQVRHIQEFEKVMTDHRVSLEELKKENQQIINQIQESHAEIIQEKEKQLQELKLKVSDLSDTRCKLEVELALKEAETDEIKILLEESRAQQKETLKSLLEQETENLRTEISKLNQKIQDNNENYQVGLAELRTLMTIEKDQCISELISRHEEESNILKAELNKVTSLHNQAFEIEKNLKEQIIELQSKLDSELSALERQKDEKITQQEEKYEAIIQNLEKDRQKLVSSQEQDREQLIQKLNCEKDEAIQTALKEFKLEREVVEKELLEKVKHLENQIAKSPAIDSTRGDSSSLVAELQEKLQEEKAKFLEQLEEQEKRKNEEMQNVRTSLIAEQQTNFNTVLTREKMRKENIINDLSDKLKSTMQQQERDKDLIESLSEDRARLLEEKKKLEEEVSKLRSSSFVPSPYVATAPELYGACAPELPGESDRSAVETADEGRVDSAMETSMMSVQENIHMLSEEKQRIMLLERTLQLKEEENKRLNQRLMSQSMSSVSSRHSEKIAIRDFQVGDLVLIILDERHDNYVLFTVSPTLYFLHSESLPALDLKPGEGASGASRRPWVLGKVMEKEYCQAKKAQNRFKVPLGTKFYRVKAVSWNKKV

Target: T1, NTAP (FLAG-HA)-CCPG1 (human) (UniProt Q9ULG6)
T1 sequence: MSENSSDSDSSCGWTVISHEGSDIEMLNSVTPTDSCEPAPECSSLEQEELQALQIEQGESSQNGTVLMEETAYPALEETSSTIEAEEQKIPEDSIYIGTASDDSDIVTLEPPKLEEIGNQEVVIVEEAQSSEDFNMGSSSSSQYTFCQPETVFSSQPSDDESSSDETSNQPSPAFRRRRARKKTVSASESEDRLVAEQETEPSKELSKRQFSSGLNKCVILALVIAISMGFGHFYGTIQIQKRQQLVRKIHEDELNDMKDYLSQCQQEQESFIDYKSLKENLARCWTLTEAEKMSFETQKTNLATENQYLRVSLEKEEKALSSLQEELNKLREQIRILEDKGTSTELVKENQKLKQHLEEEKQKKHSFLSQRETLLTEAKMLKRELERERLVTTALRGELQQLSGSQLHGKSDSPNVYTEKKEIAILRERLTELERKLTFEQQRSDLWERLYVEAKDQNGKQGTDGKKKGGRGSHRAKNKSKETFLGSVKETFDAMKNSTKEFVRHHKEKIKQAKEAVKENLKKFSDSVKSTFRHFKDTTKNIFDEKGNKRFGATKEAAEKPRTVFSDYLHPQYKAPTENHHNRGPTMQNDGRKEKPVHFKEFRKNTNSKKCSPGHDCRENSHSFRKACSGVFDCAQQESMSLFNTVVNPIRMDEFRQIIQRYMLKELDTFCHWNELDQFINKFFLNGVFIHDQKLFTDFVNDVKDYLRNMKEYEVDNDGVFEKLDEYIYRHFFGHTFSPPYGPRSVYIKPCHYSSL
Experiment: affinity purification with mass spectrometry; anti-HA-agarose immunoprecipitation from A549 NTAP (FLAG-HA)-CCPG1 lysate (50 mM Tris-HCl pH 7.5, 150 mM NaCl, 0.5% Nonidet P40), HA peptide elution, LC-MS/MS, CompPASS

- binding: binds
Substance: FIP200 (endogenous, A549) (from UniProt Q8TDY2 1-1594)
